The source of these data is PMC5603589.

Amino acid sequences for entries named in this document (tags omitted).
UniProt P31749: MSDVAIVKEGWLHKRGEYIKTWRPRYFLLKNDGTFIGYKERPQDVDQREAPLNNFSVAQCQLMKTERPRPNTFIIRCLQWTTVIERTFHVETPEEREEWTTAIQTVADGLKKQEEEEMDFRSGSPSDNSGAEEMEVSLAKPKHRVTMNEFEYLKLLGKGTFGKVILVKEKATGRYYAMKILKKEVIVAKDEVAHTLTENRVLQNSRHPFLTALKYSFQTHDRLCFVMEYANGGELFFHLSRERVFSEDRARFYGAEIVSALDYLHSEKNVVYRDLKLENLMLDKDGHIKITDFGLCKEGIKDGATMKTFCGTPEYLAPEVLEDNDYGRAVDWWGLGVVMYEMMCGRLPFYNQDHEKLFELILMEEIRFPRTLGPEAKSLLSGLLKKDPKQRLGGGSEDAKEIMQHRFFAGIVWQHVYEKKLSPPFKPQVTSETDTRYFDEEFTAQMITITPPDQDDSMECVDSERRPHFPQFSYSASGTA

The assay addresses T1, Palladin (PALLD), endogenous (human (endogenous in HeLa)) (UniProt Q8WX93).
T1 sequence: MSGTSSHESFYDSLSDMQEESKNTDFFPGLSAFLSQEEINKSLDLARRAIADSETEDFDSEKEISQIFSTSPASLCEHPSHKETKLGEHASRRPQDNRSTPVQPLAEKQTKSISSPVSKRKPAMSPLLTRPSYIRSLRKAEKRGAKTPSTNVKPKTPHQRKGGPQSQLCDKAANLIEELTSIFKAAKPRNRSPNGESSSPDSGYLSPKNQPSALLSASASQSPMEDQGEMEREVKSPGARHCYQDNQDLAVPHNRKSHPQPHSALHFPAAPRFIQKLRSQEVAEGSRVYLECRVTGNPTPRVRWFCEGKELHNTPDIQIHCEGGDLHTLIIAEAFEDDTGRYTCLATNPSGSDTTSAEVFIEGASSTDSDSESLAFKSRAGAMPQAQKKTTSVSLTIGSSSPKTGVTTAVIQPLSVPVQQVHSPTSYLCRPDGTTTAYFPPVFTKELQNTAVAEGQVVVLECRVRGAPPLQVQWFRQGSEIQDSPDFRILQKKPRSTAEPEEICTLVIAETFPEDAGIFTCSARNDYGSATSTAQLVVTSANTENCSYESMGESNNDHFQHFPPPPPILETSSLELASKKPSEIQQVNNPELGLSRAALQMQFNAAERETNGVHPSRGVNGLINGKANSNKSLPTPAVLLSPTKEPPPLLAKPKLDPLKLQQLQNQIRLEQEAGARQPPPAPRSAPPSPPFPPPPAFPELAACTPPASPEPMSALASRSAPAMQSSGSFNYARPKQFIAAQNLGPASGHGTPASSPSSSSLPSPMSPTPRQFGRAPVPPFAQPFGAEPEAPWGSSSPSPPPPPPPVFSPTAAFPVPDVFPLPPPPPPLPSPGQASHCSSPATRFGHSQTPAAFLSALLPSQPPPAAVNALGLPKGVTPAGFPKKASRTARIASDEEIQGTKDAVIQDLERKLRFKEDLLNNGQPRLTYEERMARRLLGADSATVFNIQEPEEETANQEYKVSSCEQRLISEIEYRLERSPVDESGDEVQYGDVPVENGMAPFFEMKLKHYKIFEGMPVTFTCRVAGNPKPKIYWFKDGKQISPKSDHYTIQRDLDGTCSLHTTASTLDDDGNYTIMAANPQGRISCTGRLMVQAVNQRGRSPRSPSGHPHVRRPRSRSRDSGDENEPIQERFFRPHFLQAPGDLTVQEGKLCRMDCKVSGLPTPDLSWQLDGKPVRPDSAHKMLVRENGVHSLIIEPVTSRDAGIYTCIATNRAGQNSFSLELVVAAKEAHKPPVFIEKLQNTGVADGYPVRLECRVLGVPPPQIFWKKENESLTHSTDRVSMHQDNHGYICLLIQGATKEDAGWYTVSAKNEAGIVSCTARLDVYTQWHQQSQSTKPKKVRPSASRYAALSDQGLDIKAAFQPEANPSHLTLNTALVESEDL
The assay can be described thus: co-IP; endogenous proteins in HeLa lysate (mitotic HeLa cells for AKT1); 50 mM Tris-HCl pH 7.4, 150 mM NaCl, 1 mM EDTA, 1% Triton X-100; primary antibody 6 h at 4 °C, protein A/G agarose; Western blot. Background: In western blotting, separated proteins are transferred to a membrane and probed.

Results are given in words; binding and its absence hold for the method and conditions named. In cells and extracts the contact can be indirect. Some entries that bind do so weakly or less than the wild type.

As to “AKT1 in HeLa cells (from UniProt P31749 1-480) (enzyme)”, the binding entry is “binds”.
